Data taken from patent US9180183B2, “Phospholipid drug analogs” (Telormedix SA, priority 2010, dated 2015).
Entries after “also recorded” stand apart in the source; their conditions may differ. For at least one compound, name, drawing or mass did not settle the structure.

Legend:
[1] = tested on: HLA-DR+/CD11c-/CD123+ pDCs; assay: FACS analysis of plasmacytoid DC activation in whole blood; format: cell-based, human; details: 24 hours; 0.1 and 0.5 uM; three donors
Method: A flow cytometric analysis was performed on whole blood from three donors after treatment with two compound concentrations for 24 h. The FACS analysis for donor 1 and donor 2 was made on another day than donor 3. The compound concentrations were as follows:
(§1) The FACS analysis was used to identify whether the test compounds could induce activation of B cells, and two different subsets of dendritic cells, namely the myeloid CD11c+/CD123− DCs and the plasmacytoid CD11c−/CD123+ DCs. The following markers were studied to identify the activation status of the different subsets:
(§2) The FACS staining was performed according to the manufacturer's instructions. Lysis of red blood cells was performed before FACS staining in order to minimize auto-florescence. To include as many B cells and DCs in the study as possible the FACS analyses were performed on 500,000 cells in total for each staining. A P1 gate was set only to include relevant cells on FSC vs. SSC (see FIGS. 12-15). The results of the individual analysis were present as Mean Fluorescence Intensity
The analysis of pDCs was based on HLA-DR+/CD11c−/CD123+ cells, thus all analyzed cells were included in the HLA-DR+ (P3) gate and CD11c−/CD123+ (Q1) gate. (FIGS. 13-15).

[2] = tested on: human whole blood; assay: Cytokine secretion in human whole blood assay (ELISA); format: cell-based
Method: Before drawing the blood, the compounds were added to 96 well round bottom plates in a 10× diluted sample at 20 ul. The compounds were diluted in RPMI media without serum but with antibiotics. Antibiotics were added at a 10× concentration. After drawing the blood, the whole blood sample was gently mixed to obtain a homogeneous sample, and 180 ul was added to each well.
All compounds were setup in concentrations at 0-0.01-0.03-0.1-0.5-2.0-10.0 micromolar as the final concentration. Vehicle control was DMSO control, where we used the highest concentration used for the compounds. After addition of blood, all plates were gently agitated at 37° C. and 5% CO2 until harvest.
Concentrations of cytokines were determined by ELISA from R&D Systems. The results were analyzed in Graph Pad Prism in order to prepare dose-response curves, and for determination of EC50 values. FACS analysis was made by using Becton-Dickinson FACSDiva software and subsequently illustrated in Graph Pad Prism.

[3] = Stability study of compound A under storage conditions (HPLC); format: physicochemical
[4] = Heat stability of solid samples at 80° C. (HPLC); format: physicochemical; details: solid sample
Method: Solid samples of each compound were maintained at 80° C. and analyzed by HPLC.

[5] = tested on: HLA-DR+/CD11c+/CD123- mDCs; assay: FACS analysis of myeloid DC activation in whole blood; format: cell-based, human; details: 24 hours; 0.1 and 0.5 uM; three donors
Method: The FACS analysis for donor 1 and donor 2 was made on another day than donor 3. The compound concentrations were as follows:
as §1, §2
The analysis of myeloid DCs was based on HLA-DR+/CD11c+/CD123−cells, thus all analyzed cells was included in the HLA-DR+ (P3) gate and CD11c+/CD123− (Q4) gate (see gates in FIGS. 13-15).

[6] = tested on: human PBMCs; assay: IL-6 secretion in human PBMCs, two batches of Compound A and SC12; format: cell-based; details: 5 months storage in DMSO at 4° C.
[7] = tested on: HLA-DR+/CD20+ B cells; assay: FACS analysis of B cell activation in whole blood; format: cell-based, human; details: 24 hours; 2 and 10 uM; three donors
[8] = batch CH730/23/8E, solid, +4° C., t = 2 days
[9] = batch CH730/23/8E, solid, +4° C., t = 5 days
[10] = batch CH730/23/8E, solid, +4° C., t = 7 days
[11] = batch CH730/23/8E, solid, +4° C., t = 20 days
[12] = batch CH730/23/8E, solid, external temperature and light, t = 2 days
[13] = batch CH730/23/8E, solid, external temperature and light, t = 5 days
[14] = batch CH730/23/8E, solid, external temperature and light, t = 7 days
[15] = batch CH730/23/8E, solid, external temperature and light, t = 20 days
[16] = batch CH730/23/8E, solid, room temperature and light, t = 2 days
[17] = batch CH730/23/8E, solid, room temperature and light, t = 5 days
[18] = batch CH730/23/8E, solid, room temperature and light, t = 7 days
[19] = batch CH730/23/8E, solid, room temperature and light, t = 20 days
[20] = batch CH730/23/8E, solution in CHCl3, +4° C., t = 2 days
[21] = batch CH730/23/8E, solution in CHCl3, +4° C., t = 5 days
[22] = batch CH730/23/8E, solution in CHCl3, +4° C., t = 7 days
[23] = batch CH730/23/8E, solution in CHCl3, +4° C., t = 20 days
[24] = batch CH730/23/8E, solution in CHCl3, external temperature and light, t = 2 days
[25] = batch CH730/23/8E, solution in CHCl3, external temperature and light, t = 5 days
[26] = batch CH730/23/8E, solution in CHCl3, external temperature and light, t = 7 days
[27] = batch CH730/23/8E, solution in CHCl3, external temperature and light, t = 20 days
[28] = batch CH730/23/8E, solution in CHCl3, room temperature and light, t = 0
[29] = batch CH730/23/8E, solution in CHCl3, room temperature and light, t = 2 days
[30] = batch CH730/23/8E, solution in CHCl3, room temperature and light, t = 5 days
[31] = batch CH730/23/8E, solution in CHCl3, room temperature and light, t = 7 days
[32] = batch CH730/23/8E, solution in CHCl3, room temperature and light, t = 20 days

Structure (SMILES): CCCCCCCC/C=C\CCCCCCCC(=O)OCC(COP(=O)(O)OCCNC(=O)c1ccc(Cn2c(=O)[nH]c3c(N)nc(OCCOC)nc32)cc1)OC(=O)CCCCCCC/C=C\CCCCCCCC (centres unmarked) [Compound A, 2-(4-((6-amino-2-(2-methoxyethoxy)-8-oxo-7H-purin-9(8H)-yl)methyl)benzamido)ethyl 2,3-bis(oleoyloxy)propyl phosphate]
- CCR7 expression in pDCs (MFI, in words) [1]: induced largely higher CCR7 expression than SC12
- induction of DC secreted cytokines (in words) ([2]; supernatant from whole blood cell assays): potent inducers
- IL-10 production (in words) ([2]; whole blood, 6 hours incubation): no IL-10 production was seen
- HPLC % at RRT = 1 (main peak) ([3]; batch CH730/16/8G, solid, external T and light, t = 6 days, listed as CH730/16/8 g): 35.4%
- HPLC % at RRT = 1 (main peak) [3, 8]: 95.6%
- HPLC % of impurity at RRT = 1.24 [3, 8]: 0.8%
- HPLC % of impurity at RRT = 1.27 [3, 8]: 1.3%
- HPLC % at RRT = 1 (main peak) [3, 9]: 94.7%
- HPLC % of impurity at RRT = 1.23 [3, 9]: 1.2%
- HPLC % of impurity at RRT = 1.28 [3, 9]: 1.6%
- HPLC % at RRT = 1 (main peak) [3, 10]: 94.9%
- HPLC % of impurity at RRT = 1.22 [3, 10]: 1.4%
- HPLC % of impurity at RRT = 1.28 [3, 10]: 1.5%
- HPLC % at RRT = 1 (main peak) [3, 11]: 90.4%
- HPLC % of impurity at RRT = 1.18 [3, 11]: 3.1%
- HPLC % of impurity at RRT = 1.25 [3, 11]: 3.4%
- HPLC % at RRT = 1 (main peak) [3, 12]: 94.1%
- HPLC % of impurity at RRT = 1.27 [3, 12]: 3.6%
- HPLC % at RRT = 1 (main peak) [3, 13]: 92.0%
- HPLC % of impurity at RRT = 1.27 [3, 13]: 4.9%
- HPLC % at RRT = 1 (main peak) [3, 14]: 92.0%
- HPLC % of impurity at RRT = 1.27 [3, 14]: 5.7%
- HPLC % at RRT = 1 (main peak) [3, 15]: 43.8%
- HPLC % of impurity at RRT = 1.09 [3, 15]: 27.2%
- HPLC % of impurity at RRT = 1.18 [3, 15]: 9.0%
- HPLC % of impurity at RRT = 1.23 [3, 15]: 12.1%
- HPLC % at RRT = 1 (main peak) [3, 16]: 94.6%
- HPLC % of impurity at RRT = 1.24 [3, 16]: 1.3%
- HPLC % of impurity at RRT = 1.27 [3, 16]: 2.1%
- HPLC % at RRT = 1 (main peak) [3, 17]: 91.7%
- HPLC % of impurity at RRT = 1.22 [3, 17]: 1.7%
- HPLC % of impurity at RRT = 1.27 [3, 17]: 3.8%
- HPLC % at RRT = 1 (main peak) [3, 18]: 91.8%
- HPLC % of impurity at RRT = 1.21 [3, 18]: 2.3%
- HPLC % of impurity at RRT = 1.28 [3, 18]: 3.8%
- HPLC % at RRT = 1 (main peak) [3, 19]: 68.5%
- HPLC % of impurity at RRT = 1.08 [3, 19]: 14.5%
- HPLC % of impurity at RRT = 1.18 [3, 19]: 3.9%
- HPLC % of impurity at RRT = 1.24 [3, 19]: 6.7%
- HPLC % at RRT = 1 (main peak) [3, 20]: 95.3%
- HPLC % of impurity at RRT = 1.24 [3, 20]: 1.0%
- HPLC % of impurity at RRT = 1.27 [3, 20]: 1.4%
- HPLC % at RRT = 1 (main peak) [3, 21]: 95.3%
- HPLC % of impurity at RRT = 1.23 [3, 21]: 1.1%
- HPLC % of impurity at RRT = 1.28 [3, 21]: 1.3%
- HPLC % at RRT = 1 (main peak) [3, 22]: 95.2%
- HPLC % of impurity at RRT = 1.23 [3, 22]: 1.1%
- HPLC % of impurity at RRT = 1.28 [3, 22]: 1.3%
- HPLC % at RRT = 1 (main peak) [3, 23]: 93.9%
- HPLC % of impurity at RRT = 1.18 [3, 23]: 1.4%
- HPLC % of impurity at RRT = 1.25 [3, 23]: 1.4%
- HPLC % at RRT = 1 (main peak) [3, 24]: 94.2%
- HPLC % of impurity at RRT = 1.27 [3, 24]: 1.2%
- HPLC % at RRT = 1 (main peak) [3, 25]: 90.2%
- HPLC % of impurity at RRT = 1.13 [3, 25]: 2.7%
- HPLC % of impurity at RRT = 1.27 [3, 25]: 1.2%
- HPLC % at RRT = 1 (main peak) [3, 26]: 89.0%
- HPLC % of impurity at RRT = 1.14 [3, 26]: 2.5%
- HPLC % of impurity at RRT = 1.28 [3, 26]: 1.1%
- HPLC % at RRT = 1 (main peak) [3, 27]: 55.6%
- HPLC % of impurity at RRT = 1.08 [3, 27]: 6.8%
- HPLC % of impurity at RRT = 1.16 [3, 27]: 1.6%
- HPLC % at RRT = 1 (main peak) [3, 28]: 95.6%
- HPLC % of impurity at RRT = 1.24 [3, 28]: 0.9%
- HPLC % of impurity at RRT = 1.28 [3, 28]: 1.3%
- HPLC % at RRT = 1 (main peak) [3, 29]: 95.5%
- HPLC % of impurity at RRT = 1.24 [3, 29]: 0.9%
- HPLC % of impurity at RRT = 1.28 [3, 29]: 1.3%
- HPLC % at RRT = 1 (main peak) [3, 30]: 95.4%
- HPLC % of impurity at RRT = 1.23 [3, 30]: 1.0%
- HPLC % of impurity at RRT = 1.29 [3, 30]: 1.2%
- HPLC % at RRT = 1 (main peak) [3, 31]: 95.5%
- HPLC % of impurity at RRT = 1.23 [3, 31]: 1.1%
- HPLC % of impurity at RRT = 1.28 [3, 31]: 1.2%
- HPLC % at RRT = 1 (main peak) [3, 32]: 94.4%
- HPLC % of impurity at RRT = 1.19 [3, 32]: 1.2%
- HPLC % of impurity at RRT = 1.26 [3, 32]: 1.5%
- HPLC purity ([4]; After 2 hrs at 80° C.): 73% HPLC
- HPLC purity ([4]; t = 0): 95% HPLC
- CD80 expression in mDCs (MFI, in words) [5]: induced a noteworthy CD80 expression in all three donors
- CD86 expression in mDCs (MFI, in words) [5]: further stimulates the expression of CD86 in all three donors
- activity after storage (in words) [6]: have not lost activity
- CD40 expression (MFI, in words) [7]: induced CD40 expression in donor 1 and donor 2 in all tested concentrations; also recorded: stimulates slightly higher levels of the maturation marker CD40 than SC12
